Our source for the binding values is publication PMC8721997.

The chains behind the UniProt entries cited, without tags or fusion partners.
UniProt O95180: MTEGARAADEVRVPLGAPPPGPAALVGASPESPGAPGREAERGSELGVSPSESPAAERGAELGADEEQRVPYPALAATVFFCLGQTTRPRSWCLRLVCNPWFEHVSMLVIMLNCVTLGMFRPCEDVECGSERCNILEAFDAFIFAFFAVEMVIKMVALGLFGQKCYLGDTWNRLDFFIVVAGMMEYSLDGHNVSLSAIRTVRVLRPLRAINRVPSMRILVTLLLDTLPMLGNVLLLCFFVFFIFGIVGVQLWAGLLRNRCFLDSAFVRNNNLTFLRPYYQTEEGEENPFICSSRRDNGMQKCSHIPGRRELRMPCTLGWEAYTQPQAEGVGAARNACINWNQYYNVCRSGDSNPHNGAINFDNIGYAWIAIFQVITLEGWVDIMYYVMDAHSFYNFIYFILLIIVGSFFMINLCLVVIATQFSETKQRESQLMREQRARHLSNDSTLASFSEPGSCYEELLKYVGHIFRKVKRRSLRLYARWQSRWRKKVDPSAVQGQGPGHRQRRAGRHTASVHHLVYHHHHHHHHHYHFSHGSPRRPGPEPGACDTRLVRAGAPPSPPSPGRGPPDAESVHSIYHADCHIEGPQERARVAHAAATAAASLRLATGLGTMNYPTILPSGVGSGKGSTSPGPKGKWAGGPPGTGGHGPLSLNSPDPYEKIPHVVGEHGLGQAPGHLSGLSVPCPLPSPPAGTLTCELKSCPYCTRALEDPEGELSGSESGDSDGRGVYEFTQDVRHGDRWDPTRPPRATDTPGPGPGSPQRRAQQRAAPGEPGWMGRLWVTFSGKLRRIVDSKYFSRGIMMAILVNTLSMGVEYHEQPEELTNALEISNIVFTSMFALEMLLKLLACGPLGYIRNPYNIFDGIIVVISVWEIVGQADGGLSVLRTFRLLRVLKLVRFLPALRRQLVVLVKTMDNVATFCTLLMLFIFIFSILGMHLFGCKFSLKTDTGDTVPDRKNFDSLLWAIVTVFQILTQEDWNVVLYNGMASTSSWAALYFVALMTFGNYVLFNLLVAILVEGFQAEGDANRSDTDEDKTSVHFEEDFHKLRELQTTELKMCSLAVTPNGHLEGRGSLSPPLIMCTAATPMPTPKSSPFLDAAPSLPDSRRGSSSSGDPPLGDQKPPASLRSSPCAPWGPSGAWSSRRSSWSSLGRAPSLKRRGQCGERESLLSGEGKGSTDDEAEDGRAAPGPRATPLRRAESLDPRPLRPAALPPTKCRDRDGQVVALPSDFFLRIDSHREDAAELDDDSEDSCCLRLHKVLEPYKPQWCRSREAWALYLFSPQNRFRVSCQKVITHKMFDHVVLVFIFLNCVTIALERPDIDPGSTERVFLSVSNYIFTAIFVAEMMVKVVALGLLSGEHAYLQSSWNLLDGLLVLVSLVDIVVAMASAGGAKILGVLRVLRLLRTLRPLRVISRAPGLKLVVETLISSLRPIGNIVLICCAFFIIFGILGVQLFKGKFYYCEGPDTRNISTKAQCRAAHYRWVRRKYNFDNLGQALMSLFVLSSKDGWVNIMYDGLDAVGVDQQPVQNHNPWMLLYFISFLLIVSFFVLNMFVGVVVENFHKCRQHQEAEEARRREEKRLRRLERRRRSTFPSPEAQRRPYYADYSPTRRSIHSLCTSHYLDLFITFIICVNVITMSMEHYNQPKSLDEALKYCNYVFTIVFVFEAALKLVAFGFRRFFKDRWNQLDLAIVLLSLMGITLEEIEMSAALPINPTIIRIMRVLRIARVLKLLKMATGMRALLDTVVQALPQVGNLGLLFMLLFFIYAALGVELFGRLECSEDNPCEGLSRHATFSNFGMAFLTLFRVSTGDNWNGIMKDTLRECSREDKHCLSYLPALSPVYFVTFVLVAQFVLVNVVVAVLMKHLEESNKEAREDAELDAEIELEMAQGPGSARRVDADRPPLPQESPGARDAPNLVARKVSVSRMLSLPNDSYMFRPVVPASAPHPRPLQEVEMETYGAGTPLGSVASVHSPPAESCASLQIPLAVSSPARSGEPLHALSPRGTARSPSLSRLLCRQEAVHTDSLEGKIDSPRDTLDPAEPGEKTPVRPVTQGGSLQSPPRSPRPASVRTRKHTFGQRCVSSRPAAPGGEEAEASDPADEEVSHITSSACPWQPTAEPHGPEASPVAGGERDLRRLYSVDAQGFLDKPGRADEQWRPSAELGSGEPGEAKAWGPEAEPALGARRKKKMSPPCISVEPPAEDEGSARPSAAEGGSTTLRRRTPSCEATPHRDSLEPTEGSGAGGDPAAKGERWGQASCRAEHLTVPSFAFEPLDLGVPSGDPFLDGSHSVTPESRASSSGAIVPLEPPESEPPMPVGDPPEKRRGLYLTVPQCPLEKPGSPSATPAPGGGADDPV

The target of the assay is HA-tagged Cav3.2 channel (Cav3.2-HA) (UniProt O95180). The assay is described as follows: co-IP; anti-HA antibody precipitation from total lysates of tsA-201 cells co-transfected with Cav3.2-HA and SCAMP2-Myc; blot with anti-Myc; performed four times from independent transfections.

Results are given in words; binding and its absence hold for the method and conditions named. Binding seen in cells or lysates may run through a third protein. Some results given as binding are weak or reduced against the parent protein; the word gives no strength. Tags and fused reporters may be left off the sequences shown.

B1: Myc-tagged secretory carrier-associated membrane protein 2 (SCAMP2-Myc) (protein, UniProt O15127 1-329)
chain: MSAFDTNPFADPVDVNPFQDPSVTQLTNAPQGGLAEFNPFSETNAATTVPVTQLPGSSQPAVLQPSVEPTQPTPQAVVSAAQAGLLRQQEELDRKAAELERKERELQNTVANLHVRQNNWPPLPSWCPVKPCFYQDFSTEIPADYQRICKMLYYLWMLHSVTLFLNLLACLAWFSGNSSKGVDFGLSILWFLIFTPCAFLCWYRPIYKAFRSDNSFSFFVFFFVFFCQIGIYIIQLVGIPGLGDSGWIAALSTLDNHSLAISVIMMVVAGFFTLCAVLSVFLLQRVHSLYRRTGASFQQAQEEFSQGIFSSRTFHRAASSAAQGAFQGN
Regarding B1, the binding result was “binds”.
